Test results taken from patent EP4628074A1, “N-PALMITOYLETHANOLAMIDE FOR USE IN COMBINATION WITH A NON-STEROIDAL ANTI-INFLAMMATORY DRUG IN THE TREATMENT OF INFLAMMATORY PAIN” (priority 2024, dated 2025).
At least one compound was matched to its structure with a doubt left.

System: CFA-induced inflammatory pain
Assay: Paw pressure test, CFA-induced inflammatory pain, single (acute) oral administration (Experiment 1)
Assay type: in vivo, male Sprague-Dawley rats
Conditions: CFA-injected rats, single per os administration on day 7; NSAID 30 mg/kg
Description: In the in vivo experimentation, male Sprague-Dawley rats (200-250 g) (Envigo, Varese, Italy) fed "ad libitum" and housed in cages with a controlled sleep/wake cycle were used.
Before the start of the study, the animals were subjected to a 1-week acclimatization period at the Center for Laboratory Animal Sheltering (Ce.S.A.L.) of the University of Florence, following all experimental procedures and protocols compliant with the principles of care and welfare of laboratory animals approved by the Italian Ministry of Health (Italian Legislative Decree 2014/26), European directives (EU Directive 2010/63) and the ARRIVE guidelines. […]
All animals were subjected to the paw pressure test at the level of the ipsilateral paw, performed before (T0) or after 15, 30, 45 and 60 minutes after the single administration of the treatment (T15, T30, T45 and T60, respectively). In particular, the nociceptive threshold was calculated with an analgesiometer (Ugo Basile, Varese, Italy) by applying an increasing pressure at constant speed (32 g/s) by means of a non-pointed conical support on the dorsal surface of the ipsilateral paw with respect to the injection of CFA (or vehicle). […]
The AUC was analyzed by a two-way factor analysis of variance (2x2 ANOVA), after plotting the mean values, according to the procedure shown by Slinker BK. […] The values were expressed as mean ± standard error mean (SEM). […]

Cc1cnc(NC(=O)C2=C(O)c3ccccc3S(=O)(=O)N2C)s1 [meloxicam, Meloxicam]
pain tolerance threshold with respect to the CFA group: significantly counteracts the threshold lowering caused by CFA
